For the test, the target named is T1, FLAG-tagged DLX4 fused to GFP (UniProt Q92988).
T1 sequence: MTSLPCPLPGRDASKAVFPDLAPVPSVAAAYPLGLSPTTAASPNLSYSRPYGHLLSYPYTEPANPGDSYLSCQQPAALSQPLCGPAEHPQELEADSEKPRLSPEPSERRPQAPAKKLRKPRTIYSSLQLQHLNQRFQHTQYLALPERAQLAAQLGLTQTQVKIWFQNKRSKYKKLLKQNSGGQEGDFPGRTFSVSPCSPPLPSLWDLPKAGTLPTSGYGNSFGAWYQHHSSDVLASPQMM
Nature of the test: co-IP; 2 mg extract of U3A cells (stimulated with IFN-gamma 10 ng/mL for 1 h), pre-cleared with protein G agarose, incubated with FLAG Ab or control Ig in lysis buffer (20 mM Tris-HCl pH 8.0, 100 mM NaCl, 1% Nonidet P-40, 10% glycerol, 2 mM EDTA); immunoprecipitates blotted with Ab to STAT1.

Amino acid sequences for entries named in this document (tags omitted).
UniProt P42224: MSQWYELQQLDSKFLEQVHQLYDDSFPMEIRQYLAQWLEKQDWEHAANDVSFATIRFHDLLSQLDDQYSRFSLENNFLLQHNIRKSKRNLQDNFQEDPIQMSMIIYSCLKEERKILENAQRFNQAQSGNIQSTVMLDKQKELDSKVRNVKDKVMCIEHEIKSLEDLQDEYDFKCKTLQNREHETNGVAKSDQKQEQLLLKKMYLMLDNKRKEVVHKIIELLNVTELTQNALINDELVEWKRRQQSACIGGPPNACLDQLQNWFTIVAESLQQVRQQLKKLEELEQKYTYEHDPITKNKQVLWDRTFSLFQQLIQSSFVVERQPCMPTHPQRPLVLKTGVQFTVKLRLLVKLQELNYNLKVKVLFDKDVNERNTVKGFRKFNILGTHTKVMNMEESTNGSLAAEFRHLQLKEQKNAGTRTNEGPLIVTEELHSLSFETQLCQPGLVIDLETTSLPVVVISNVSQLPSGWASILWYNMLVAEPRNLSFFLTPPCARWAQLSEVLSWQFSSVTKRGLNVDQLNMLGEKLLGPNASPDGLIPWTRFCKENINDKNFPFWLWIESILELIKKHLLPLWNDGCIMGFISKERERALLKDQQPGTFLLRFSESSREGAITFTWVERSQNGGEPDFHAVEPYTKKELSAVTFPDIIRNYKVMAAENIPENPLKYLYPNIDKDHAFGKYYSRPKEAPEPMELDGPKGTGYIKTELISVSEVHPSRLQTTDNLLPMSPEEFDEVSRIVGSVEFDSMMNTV

No constants are given. Whether binding was seen depends on the method and setting. Binding seen in cells or lysates may run through a third protein. Some entries that bind do so weakly or less than the wild type. Sequences can lack the tags named with a protein.

Regarding “GFP-STAT1 fusion protein (from UniProt P42224 1-750)”, the binding result was “binds”.

Source of the values: PMC4427985.
